Data published in patent US10905764B2, “Hydrated food” (Taiyokagaku Co., Ltd., priority 2005, dated 2021).

Tests used:
panelists [1] = assay: Sensory evaluation: taste of glutamic acid with addition of pyroglutamic acid; type: in vivo; conditions: ten panelists
panelists [2] = assay: Sensory evaluation: taste of glutamine with addition of pyroglutamic acid; type: in vivo; conditions: for number of panelists who felt the taste (pyroglutamic acid alone): ten panelists
panelists [3] = assay: Sensory evaluation: taste of theanine with addition of pyroglutamic acid; type: in vivo; conditions: for number of panelists who felt the taste (pyroglutamic acid alone) / number of panelists who felt the taste of theanine: ten panelists
panelists [4] = assay: Sensory evaluation: bitter taste of aspartame with addition of pyroglutamic acid and theanine (1:50); type: in vivo; conditions: for number of panelists who felt the bitter taste of aspartame: ten panelists
[5] = minimum concentration at which taste can be perceived; cited from earlier work
panelists [6] = assay: Sensory evaluation: bitter taste of L-phenylalanine with addition of pyroglutamic acid and theanine (1:50); type: in vivo; conditions: for number of panelists who felt the bitter taste of L-phenylalanine: ten panelists
panelists [7] = assay: Sensory evaluation: bitter taste of acesulfame K with addition of pyroglutamic acid and theanine (1:50); type: in vivo; conditions: for number of panelists who felt the bitter taste of acesulfame K: ten panelists

O=C1CCC(C(=O)O)N1 (centres unmarked) [pyroglutamic acid, 2-pyrrolidone-5-carboxylic acid]
number of panelists who felt the taste (pyroglutamic acid alone) (panelists [1]; glutamic acid 0, pyroglutamic acid 1 (mg/100 ml)): 0
number of panelists who felt the taste (pyroglutamic acid alone) (panelists [1]; glutamic acid 0, pyroglutamic acid 10 (mg/100 ml)): 0
number of panelists who felt the taste (pyroglutamic acid alone) (panelists [1]; glutamic acid 0, pyroglutamic acid 50 (mg/100 ml)): 0
number of panelists who felt the taste (pyroglutamic acid alone) (panelists [2]; glutamine 0, pyroglutamic acid 1 (mg/100 ml)): 0
number of panelists who felt the taste (pyroglutamic acid alone) (panelists [2]; glutamine 0, pyroglutamic acid 10 (mg/100 ml)): 0
number of panelists who felt the taste (pyroglutamic acid alone) (panelists [2]; glutamine 0, pyroglutamic acid 50 (mg/100 ml)): 0
number of panelists who felt the taste (pyroglutamic acid alone) (panelists [3]; theanine 0, pyroglutamic acid 1 (mg/100 ml)): 0
number of panelists who felt the taste (pyroglutamic acid alone) (panelists [3]; theanine 0, pyroglutamic acid 10 (mg/100 ml)): 0
number of panelists who felt the taste (pyroglutamic acid alone) (panelists [3]; theanine 0, pyroglutamic acid 50 (mg/100 ml)): 0

COC(=O)[C@H](Cc1ccccc1)NC(=O)[C@@H](N)CC(=O)O [aspartame] (H-Asp-Phe-OMe)
number of panelists who felt the bitter taste of aspartame (panelists [4]; aspartame 1, pyroglutamic acid/theanine 0 (mg/100 ml)): 0
number of panelists who felt the bitter taste of aspartame (panelists [4]; aspartame 1, pyroglutamic acid/theanine 1 (mg/100 ml)): 0
number of panelists who felt the bitter taste of aspartame (panelists [4]; aspartame 1, pyroglutamic acid/theanine 10 (mg/100 ml)): 0
number of panelists who felt the bitter taste of aspartame (panelists [4]; aspartame 1, pyroglutamic acid/theanine 50 (mg/100 ml)): 0
number of panelists who felt the bitter taste of aspartame (panelists [4]; aspartame 1, pyroglutamic acid/theanine 100 (mg/100 ml)): 0
number of panelists who felt the bitter taste of aspartame (panelists [4]; aspartame 3, pyroglutamic acid/theanine 1 (mg/100 ml)): 4
number of panelists who felt the bitter taste of aspartame (panelists [4]; aspartame 3, pyroglutamic acid/theanine 50 (mg/100 ml)): 0
number of panelists who felt the bitter taste of aspartame (panelists [4]; aspartame 3, pyroglutamic acid/theanine 100 (mg/100 ml)): 0
number of panelists who felt the bitter taste of aspartame (panelists [4]; aspartame 5, pyroglutamic acid/theanine 0 (mg/100 ml)): 10
number of panelists who felt the bitter taste of aspartame (panelists [4]; aspartame 5, pyroglutamic acid/theanine 1 (mg/100 ml)): 2
number of panelists who felt the bitter taste of aspartame (panelists [4]; aspartame 5, pyroglutamic acid/theanine 10 (mg/100 ml)): 1
number of panelists who felt the bitter taste of aspartame (panelists [4]; aspartame 5, pyroglutamic acid/theanine 50 (mg/100 ml)): 0
number of panelists who felt the bitter taste of aspartame (panelists [4]; aspartame 5, pyroglutamic acid/theanine 100 (mg/100 ml)): 0
number of panelists who felt the bitter taste of aspartame (panelists [4]; aspartame 10, pyroglutamic acid/theanine 0 (mg/100 ml)): 10
number of panelists who felt the bitter taste of aspartame (panelists [4]; aspartame 10, pyroglutamic acid/theanine 1 (mg/100 ml)): 4
number of panelists who felt the bitter taste of aspartame (panelists [4]; aspartame 10, pyroglutamic acid/theanine 10 (mg/100 ml)): 3
number of panelists who felt the bitter taste of aspartame (panelists [4]; aspartame 10, pyroglutamic acid/theanine 50 (mg/100 ml)): 1
threshold of aspartame (panelists [4]; no mixture added): 3 mg/100 ml

CCNC(=O)CC[C@H](N)C(=O)O [theanine, L-theanine]
taste threshold [5]: 150 mg/100 ml
threshold of theanine (panelists [3]; no pyroglutamic acid): 150 mg/100 ml
number of panelists who felt the taste of theanine (panelists [3]; theanine 100, pyroglutamic acid 0 (mg/100 ml)): 0
number of panelists who felt the taste of theanine (panelists [3]; theanine 100, pyroglutamic acid 1 (mg/100 ml)): 0
number of panelists who felt the taste of theanine (panelists [3]; theanine 100, pyroglutamic acid 10 (mg/100 ml)): 0
number of panelists who felt the taste of theanine (panelists [3]; theanine 100, pyroglutamic acid 50 (mg/100 ml)): 0
number of panelists who felt the taste of theanine (panelists [3]; theanine 100, pyroglutamic acid 100 (mg/100 ml)): 0
number of panelists who felt the taste of theanine (panelists [3]; theanine 150, pyroglutamic acid 1 (mg/100 ml)): 2
number of panelists who felt the taste of theanine (panelists [3]; theanine 150, pyroglutamic acid 50 (mg/100 ml)): 0
number of panelists who felt the taste of theanine (panelists [3]; theanine 150, pyroglutamic acid 100 (mg/100 ml)): 0
number of panelists who felt the taste of theanine (panelists [3]; theanine 500, pyroglutamic acid 0 (mg/100 ml)): 10
number of panelists who felt the taste of theanine (panelists [3]; theanine 500, pyroglutamic acid 1 (mg/100 ml)): 3
number of panelists who felt the taste of theanine (panelists [3]; theanine 500, pyroglutamic acid 10 (mg/100 ml)): 1
number of panelists who felt the taste of theanine (panelists [3]; theanine 500, pyroglutamic acid 50 (mg/100 ml)): 0
number of panelists who felt the taste of theanine (panelists [3]; theanine 500, pyroglutamic acid 100 (mg/100 ml)): 0
number of panelists who felt the taste of theanine (panelists [3]; theanine 1000, pyroglutamic acid 0 (mg/100 ml)): 10
number of panelists who felt the taste of theanine (panelists [3]; theanine 1000, pyroglutamic acid 1 (mg/100 ml)): 5
number of panelists who felt the taste of theanine (panelists [3]; theanine 1000, pyroglutamic acid 10 (mg/100 ml)): 3
number of panelists who felt the taste of theanine (panelists [3]; theanine 1000, pyroglutamic acid 50 (mg/100 ml)): 1

NC(=O)CC[C@H](N)C(=O)O [glutamine, 2-aminoglutalamid acid]
threshold of glutamine (panelists [2]; no pyroglutamic acid): 250 mg/100 ml

N[C@@H](Cc1ccccc1)C(=O)O [L-phenylalanine]
number of panelists who felt the bitter taste of L-phenylalanine (panelists [6]; L-phenylalanine 10, pyroglutamic acid/theanine 0 (mg/100 ml)): 0
number of panelists who felt the bitter taste of L-phenylalanine (panelists [6]; L-phenylalanine 10, pyroglutamic acid/theanine 1 (mg/100 ml)): 0
number of panelists who felt the bitter taste of L-phenylalanine (panelists [6]; L-phenylalanine 10, pyroglutamic acid/theanine 10 (mg/100 ml)): 0
number of panelists who felt the bitter taste of L-phenylalanine (panelists [6]; L-phenylalanine 10, pyroglutamic acid/theanine 50 (mg/100 ml)): 0
number of panelists who felt the bitter taste of L-phenylalanine (panelists [6]; L-phenylalanine 10, pyroglutamic acid/theanine 100 (mg/100 ml)): 0
number of panelists who felt the bitter taste of L-phenylalanine (panelists [6]; L-phenylalanine 30, pyroglutamic acid/theanine 1 (mg/100 ml)): 1
number of panelists who felt the bitter taste of L-phenylalanine (panelists [6]; L-phenylalanine 30, pyroglutamic acid/theanine 50 (mg/100 ml)): 0
number of panelists who felt the bitter taste of L-phenylalanine (panelists [6]; L-phenylalanine 30, pyroglutamic acid/theanine 100 (mg/100 ml)): 0
number of panelists who felt the bitter taste of L-phenylalanine (panelists [6]; L-phenylalanine 50, pyroglutamic acid/theanine 0 (mg/100 ml)): 10
number of panelists who felt the bitter taste of L-phenylalanine (panelists [6]; L-phenylalanine 50, pyroglutamic acid/theanine 1 (mg/100 ml)): 3
number of panelists who felt the bitter taste of L-phenylalanine (panelists [6]; L-phenylalanine 50, pyroglutamic acid/theanine 10 (mg/100 ml)): 1
number of panelists who felt the bitter taste of L-phenylalanine (panelists [6]; L-phenylalanine 50, pyroglutamic acid/theanine 50 (mg/100 ml)): 0
number of panelists who felt the bitter taste of L-phenylalanine (panelists [6]; L-phenylalanine 50, pyroglutamic acid/theanine 100 (mg/100 ml)): 0
number of panelists who felt the bitter taste of L-phenylalanine (panelists [6]; L-phenylalanine 100, pyroglutamic acid/theanine 0 (mg/100 ml)): 10
number of panelists who felt the bitter taste of L-phenylalanine (panelists [6]; L-phenylalanine 100, pyroglutamic acid/theanine 1 (mg/100 ml)): 5
number of panelists who felt the bitter taste of L-phenylalanine (panelists [6]; L-phenylalanine 100, pyroglutamic acid/theanine 10 (mg/100 ml)): 3
number of panelists who felt the bitter taste of L-phenylalanine (panelists [6]; L-phenylalanine 100, pyroglutamic acid/theanine 50 (mg/100 ml)): 1
threshold of L-phenylalanine (panelists [6]; no mixture added): 30 mg/100 ml

CC1=CC(=O)NS(=O)(=O)O1 [acesulfame K, acesulfame potassium]
number of panelists who felt the bitter taste of acesulfame K (panelists [7]; acesulfame K 1, pyroglutamic acid/theanine 0 (mg/100 ml)): 0
number of panelists who felt the bitter taste of acesulfame K (panelists [7]; acesulfame K 1, pyroglutamic acid/theanine 1 (mg/100 ml)): 0
number of panelists who felt the bitter taste of acesulfame K (panelists [7]; acesulfame K 1, pyroglutamic acid/theanine 10 (mg/100 ml)): 0
number of panelists who felt the bitter taste of acesulfame K (panelists [7]; acesulfame K 1, pyroglutamic acid/theanine 50 (mg/100 ml)): 0
number of panelists who felt the bitter taste of acesulfame K (panelists [7]; acesulfame K 1, pyroglutamic acid/theanine 100 (mg/100 ml)): 0
number of panelists who felt the bitter taste of acesulfame K (panelists [7]; acesulfame K 3, pyroglutamic acid/theanine 1 (mg/100 ml)): 3
number of panelists who felt the bitter taste of acesulfame K (panelists [7]; acesulfame K 3, pyroglutamic acid/theanine 50 (mg/100 ml)): 0
number of panelists who felt the bitter taste of acesulfame K (panelists [7]; acesulfame K 3, pyroglutamic acid/theanine 100 (mg/100 ml)): 0
number of panelists who felt the bitter taste of acesulfame K (panelists [7]; acesulfame K 5, pyroglutamic acid/theanine 0 (mg/100 ml)): 9
number of panelists who felt the bitter taste of acesulfame K (panelists [7]; acesulfame K 5, pyroglutamic acid/theanine 1 (mg/100 ml)): 4
number of panelists who felt the bitter taste of acesulfame K (panelists [7]; acesulfame K 5, pyroglutamic acid/theanine 10 (mg/100 ml)): 1
number of panelists who felt the bitter taste of acesulfame K (panelists [7]; acesulfame K 5, pyroglutamic acid/theanine 50 (mg/100 ml)): 0
number of panelists who felt the bitter taste of acesulfame K (panelists [7]; acesulfame K 5, pyroglutamic acid/theanine 100 (mg/100 ml)): 0
number of panelists who felt the bitter taste of acesulfame K (panelists [7]; acesulfame K 10, pyroglutamic acid/theanine 0 (mg/100 ml)): 10
number of panelists who felt the bitter taste of acesulfame K (panelists [7]; acesulfame K 10, pyroglutamic acid/theanine 1 (mg/100 ml)): 6
number of panelists who felt the bitter taste of acesulfame K (panelists [7]; acesulfame K 10, pyroglutamic acid/theanine 10 (mg/100 ml)): 2
number of panelists who felt the bitter taste of acesulfame K (panelists [7]; acesulfame K 10, pyroglutamic acid/theanine 50 (mg/100 ml)): 1
threshold of acesulfame K (panelists [7]; no mixture added): 3 mg/100 ml

Peptide text beside a SMILES is read from it.
